Measurements from patent publication US20250243219A1, “MACROCYCLIC COMPOUNDS AND USES THEREOF” (Cypralis Limited, priority 2022, published 2025).
Structures were worked out from names or drawings and are uncertain.

By UniProt entry, the sequences of proteins in these tests, tags left out. Residues count along the entry.
UniProt P30405, 30-207 limits assumed: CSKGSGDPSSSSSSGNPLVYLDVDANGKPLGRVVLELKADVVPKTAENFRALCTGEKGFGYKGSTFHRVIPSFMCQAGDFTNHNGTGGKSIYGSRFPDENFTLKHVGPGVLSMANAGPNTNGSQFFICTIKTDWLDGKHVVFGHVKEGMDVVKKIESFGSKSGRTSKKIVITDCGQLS

How the values were obtained:
cyclophilin D = cyclophilin D (Homo sapiens (Human), UniProt P30405); experiment: Functional peptidyl prolyl isomerase (PPIase) spectrophotometric assay, cyclophilin D; settings: read-out: Ki CypD; second value of CypA/D cell
Text: Cyclophilins are enzymes that catalyse the cis-trans isomerisation of peptide bonds to the amino acid proline. This event is important in many biological processes, including protein folding and signal transduction. […] The method to measure this activity and its inhibition is similar to that described by Jankowski (Analytical Biochemistry, 252, 2, 299-307 (1997)). The assay measures the cis to trans isomerisation of a peptide substrate catalysed by a PPlase enzyme using a UV/Vis spectrophotometer. This assay is a manual single cuvette-based assay. A first order rate equation is fitted to the absorbance data to obtain a rate constant. The catalytic rate is calculated from the enzymatic rate minus the background rate. The Ki (the concentration required to produce half maximum inhibition) for an inhibitor is obtained from the rate constant plotted against the inhibitor concentration. Typically, a 6-point dose response curve is obtained from duplicates and a Ki determined. Data are given in Table 5 as Ki [nM] for cyclophilins A and D, expressed in column 2 of Table 5 as Ki (cypA)/Ki (cypD).

[1] = system: permeabilised HepG2 cells; experiment: Calcium retention capacity (CRC) assay in permeabilised HepG2 cells (MPTP opening); parameters: unit not given here; settings: compound at 10 μM; digitonin permeabilised HepG2 cells
Protocol: The use of permeabilised cells means that inhibitory compounds that may not normally enter non-permeabilised cells are more likely to be active.
The calcium retention capacity (CRC) is a measure of the capability of mitochondria to retain calcium, primarily in the form of calcium phosphates, in the mitochondrial matrix.
In a CRC assay, the calcium indicator Calcium Green-5N (InVitrogen) is utilized. […] The assay is carried out in HepG2 (human hepatocellular carcinoma) cells which are digitonin permeabilized. Trains of calcium pulses (typically 5 μM additions) are added which results in a sudden increase in fluorescence which is then reduced by mitochondrial buffering. The cells will reach a point at which the calcium addition is no longer buffered, an indication that the MPTP has opened (mitochondrial permeability transition).
The experiment is performed with and without inhibitor. A compound that acts to inhibit the mitochondrial pore opening will result in a greater requirement for calcium to reach the transition point. The results are normalised to a positive control (cyclosporin A) in each experiment. The results are shown in column 3 of Table 5 as CRC [10 μM] (ratio vs CsA). The method of digitonin permeabilised whole cell CRC assay is similar to that used by Chiara et al. (PLoS One, March, 3, 3, e1852 (2008)).

SH-SY5Y cells = experiment: Thapsigargin treated cell death assay in SH-SY5Y cells; settings: compound at 10 μM; positive = protection from cell death, negative = compound toxicity
Text: Thapsigargin raises intracellular free calcium (Ca^2+) by potently inhibiting the endoplasmic reticulum Ca-ATPase, which sequesters Ca^2+ from the cytosol. The increased cytosolic Ca^2+ concentration is buffered by mitochondria by exchanging Ca^2+ for K, leading to depolarisation in the inner mitochondrial membrane and permeability transition.
The thapsigargin treated Jurkat cell death assay is a homogeneous 96 well plate based assay for cell death, instigated by the opening of the mitochondrial permeability transition pore (MPTP). The addition of thapsigargin to Jurkat cells results in an influx of calcium, the increase in intracellular calcium will initially be buffered by the mitochondria, but eventually the increasing calcium concentration will result in the opening of the MPTP, resulting in cell death.
CellTox™ Green is a dye which is unable to enter the cell until cell death leads to the loss of membrane integrity. Once this happens the CellTox™ Green enters the cell, binds to the cell's DNA and emits a fluorescent signal. […] Unless otherwise stated, the assay is typically run using a range of three compound concentrations of 1, 3 and 10 μM in triplicate and is read kinetically over a period of 24 hours. Compounds are added 30 minutes before the addition of thapsigargin. […] Results are typically calculated at the 8 hour time point and the kinetic data is also reported. […]

C[C@@H]1NC(=O)[C@H](CC2CCCNC2)OC(=O)C(C)(C)/C=C/c2ccc3ccc(nc3c2)N(C)NC(=O)[C@@H]2CCCN(N2)C1=O (stereo partly drawn) [Compound (56)]
Ki (cyclophilin D): 1.7 µM | CRC [10 μM] [1]: 8.3 | SYSY [10 μM] % recovery (SH-SY5Y cells): 9%
